Record: PubChem BioAssay AID743454 (Peter MacCallum Cancer Centre, 2014)
Here is one part, drawn at random, of about 18,000 deposited reagents. Over the whole deposit, 450 (2.5%) got an active call. 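Single biological run; no consistent viability z cut-off exists, so the class columns, not z-scores, define the calls.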

- Screen: 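Search for knock-downs that restore vorinostat killing in resistant colon cancer cells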 (primary screen)
- Cells: human HCT116-VR colon cancer cells, selected for vorinostat resistance
- Reagents: siRNA pool against human genes, 40 nM siRNA pool
- Duration: vorinostat for 24 h, read-out about 72 h after transfection
- Challenge: vorinostat at 2.5 µM final
- Measured: 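Two measures, CellTiter-Fluor viability and luminescent caspase 3/7 activity, each as fold change against same-plate mock wells, mean of duplicates, then screen-wide robust z-score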
- Scale: viability robust z-score: higher = more viable cells than screen typical; caspase robust z-score: higher = more caspase 3/7 activity than screen typical
- Active means: 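Hits are knock-downs in viability class RV1/RV2 or caspase class CA1/CA2, excluding ones that killed cells in the no-drug cell-count arm; hits then retested with single siRNAs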

PPP1R13L | viability hit class = no change; caspase hit class = no change; viability robust z-score = -1.32; caspase robust z-score = 1.52; activity call = inactive
ITPRIPL1 | viability hit class = no change; caspase hit class = no change; viability robust z-score = 0.68; caspase robust z-score = -0.39; activity call = inactive
CXCL9 | viability hit class = no change; caspase hit class = no change; viability robust z-score = 0.46; caspase robust z-score = 1.01; activity call = inactive
KCNH3 | viability hit class = no change; caspase hit class = no change; viability robust z-score = -0.73; caspase robust z-score = 1.38; activity call = inactive
SLC39A12 | viability hit class = no change; caspase hit class = no change; viability robust z-score = -0.15; caspase robust z-score = 0.88; activity call = inactive
PSMC1 | viability hit class = no change; caspase hit class = no change; viability robust z-score = -4.27; caspase robust z-score = 3.08; activity call = inactive
DLST | viability hit class = no change; caspase hit class = no change; viability robust z-score = -0.83; caspase robust z-score = 0.45; activity call = inactive
EFL1 | viability hit class = no change; caspase hit class = no change; viability robust z-score = -0.22; caspase robust z-score = -0.67; activity call = inactive
RELA | viability hit class = no change; caspase hit class = no change; viability robust z-score = 0.3; caspase robust z-score = 2.54; activity call = inactive
MATCAP1 | viability hit class = no change; caspase hit class = no change; viability robust z-score = 0.74; caspase robust z-score = -0.38; activity call = inactive
ADCYAP1 | viability hit class = no change; caspase hit class = no change; viability robust z-score = 0.04; caspase robust z-score = 0; activity call = inactive
SMG1 | viability hit class = RV1 (reduced viability); caspase hit class = no change; viability robust z-score = -4.54; caspase robust z-score = 4.79; activity call = active
BCL2L12 | viability hit class = no change; caspase hit class = no change; viability robust z-score = -0.96; caspase robust z-score = 2.84; activity call = inactive
CREBRF | viability hit class = no change; caspase hit class = no change; viability robust z-score = -0.39; caspase robust z-score = -1.08; activity call = inactive

2 of these entries, set out differently.
gene,viability hit class,caspase hit class,viability robust z-score,caspase robust z-score,activity call
ADCYAP1,no change,no change,0.04,0,inactive
SMG1,RV1 (reduced viability),no change,-4.54,4.79,active
